Results published in US11970485B2, “RET kinase inhibitors” (Eli Lilly and Company, priority 2020, dated 2024).
Some of these results come from one statement about several compounds together.

The chains behind the UniProt entries cited, without tags or fusion partners.
UniProt P07949, whole entry G810S: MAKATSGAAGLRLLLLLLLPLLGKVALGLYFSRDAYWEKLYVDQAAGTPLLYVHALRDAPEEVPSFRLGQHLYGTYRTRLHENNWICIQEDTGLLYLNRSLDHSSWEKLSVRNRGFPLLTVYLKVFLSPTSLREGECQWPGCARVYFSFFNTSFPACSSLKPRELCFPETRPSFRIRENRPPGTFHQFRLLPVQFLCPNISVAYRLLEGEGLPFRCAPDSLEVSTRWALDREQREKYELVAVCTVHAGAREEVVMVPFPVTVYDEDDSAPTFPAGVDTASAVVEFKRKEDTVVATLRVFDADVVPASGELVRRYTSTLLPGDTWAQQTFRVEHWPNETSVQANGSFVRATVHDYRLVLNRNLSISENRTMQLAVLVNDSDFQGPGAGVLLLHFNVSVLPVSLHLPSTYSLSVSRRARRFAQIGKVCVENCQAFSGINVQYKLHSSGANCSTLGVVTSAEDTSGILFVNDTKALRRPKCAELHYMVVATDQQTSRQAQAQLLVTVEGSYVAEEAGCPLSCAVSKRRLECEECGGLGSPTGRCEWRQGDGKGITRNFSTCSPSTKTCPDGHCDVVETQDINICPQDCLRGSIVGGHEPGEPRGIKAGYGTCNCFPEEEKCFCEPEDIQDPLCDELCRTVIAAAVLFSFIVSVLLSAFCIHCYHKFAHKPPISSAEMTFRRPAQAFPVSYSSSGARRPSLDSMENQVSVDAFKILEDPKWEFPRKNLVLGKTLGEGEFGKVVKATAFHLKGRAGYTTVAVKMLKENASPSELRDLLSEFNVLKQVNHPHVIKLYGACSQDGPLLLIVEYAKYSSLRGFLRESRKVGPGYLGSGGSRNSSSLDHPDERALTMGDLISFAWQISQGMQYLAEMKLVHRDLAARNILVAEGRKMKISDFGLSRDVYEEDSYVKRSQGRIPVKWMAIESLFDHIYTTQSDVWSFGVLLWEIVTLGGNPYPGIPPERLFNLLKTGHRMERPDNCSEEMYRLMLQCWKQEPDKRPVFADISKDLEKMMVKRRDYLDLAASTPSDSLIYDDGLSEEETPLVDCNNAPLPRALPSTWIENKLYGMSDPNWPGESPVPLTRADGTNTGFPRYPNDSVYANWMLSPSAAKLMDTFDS

Experiments:
[1] = target: T1, wildtype, V804 M, and G810S mutant RET kinase (Homo sapiens, UniProt P07949); assay: Assay A: RET Enzyme Assay (CisBio HTRF KinEASE-TK); type: biochemical; conditions: in at least one of wildtype, V804 M, and G810S mutant RET kinases; 1 mM ATP
T1 construct: N-terminal GST tagged recombinant human RET cytoplasmic domain (aa 658-end) from Eurofins (1.25 nM RET); fused on or other part: N-terminal GST tag

[2] = target: T2, KIF5B-RET WT and RET mutant forms V804 M and G810S in HEK293 cells (Homo sapiens, UniProt P07949); assay: Assay B: RET Cell Assay (In-Cell Western, RET autophosphorylation at tyrosine 1062); type: cell-based; conditions: in at least one of wildtype, V804 M, and G810S RET mutant cell assays; HEK293, 1 hr compound treatment; read-out: EC50, inhibition of intracellular autophosphorylation of RET at tyrosine 1062
T2 construct: fused on or other part: P33176 (Kinesin-1 heavy chain)

SMILES	IC50 [1]	EC50 [2]
CC(C)n1nc(-c2ccc(CC(=O)Nc3cc(-c4ccc(Cl)cc4Cl)no3)nc2)c(C(N)=O)c1N [Example 316, 5-Amino-3-[6-[2-[[3-(2,4-dichlorophenyl)isoxazol-5-yl]amino]-2-oxo-ethyl]-3-pyridyl]-1-isopropyl-pyrazole-4-carboxamide]	< 150 nM	< 150 nM
CC(C)n1nc(-c2ccc(CC(=O)Nc3cc(-c4ccccc4Cl)no3)nc2)c(C(N)=O)c1N [Example 317, 5-Amino-3-[6-[2-[[3-(2-chlorophenyl)isoxazol-5-yl]amino]-2-oxo-ethyl]-3-pyridyl]-1-isopropyl-pyrazole-4-carboxamide]	< 150 nM	< 150 nM
CC(C)n1nc(-c2ccc(CC(=O)Nc3cc(C(C)(C)C)on3)nc2)c(C(N)=O)c1N [Example 318, 5-Amino-3-[6-[2-[(5-tert-butylisoxazol-3-yl)amino]-2-oxo-ethyl]-3-pyridyl]-1-isopropyl-pyrazole-4-carboxamide]	< 150 nM	< 150 nM
CC(C)n1nc(-c2ccc(CC(=O)Nc3cc(-c4ccc(Cl)cc4F)no3)nc2)c(C(N)=O)c1N [Example 321, 5-Amino-3-[6-[2-[[3-(4-chloro-2-fluoro-phenyl)isoxazol-5-yl]amino]-2-oxo-ethyl]-3-pyridyl]-1-isopropyl-pyrazole-4-carboxamide]	< 150 nM	< 150 nM
Cc1ccc(-c2cc(NC(=O)Cc3ccc(-c4nn(C(C)C)c(N)c4C(N)=O)cn3)on2)c(Cl)c1 [Example 324, 5-Amino-3-[6-[2-[[3-(2-chloro-4-methyl-phenyl)isoxazol-5-yl]amino]-2-oxo-ethyl]-3-pyridyl]-1-isopropyl-pyrazole-4-carboxamide]	< 150 nM	< 150 nM
CC(C)n1nc(-c2ccc(CC(=O)Nc3ccc(CN4CCN(C)CC4)c(C(F)(F)F)c3)nc2)c(C(N)=O)c1N [Example 329, 5-Amino-1-isopropyl-3-[6-[2-[4-[(4-methylpiperazin-1-yl)methyl]-3-(trifluoromethyl)anilino]-2-oxo-ethyl]-3-pyridyl]pyrazole-4-carboxamide]	< 150 nM	< 150 nM
CC(C)n1nc(-c2ccc(CC(=O)Nc3cc(-c4ccc(Cl)c(F)c4Cl)no3)nc2)c(C(N)=O)c1N [Example 330, 5-Amino-3-[6-[2-[[3-(2,4-dichloro-3-fluoro-phenyl)isoxazol-5-yl]amino]-2-oxo-ethyl]-3-pyridyl]-1-isopropyl-pyrazole-4-carboxamide]	< 150 nM	< 150 nM
CC(C)n1nc(-c2ccc(CC(=O)Nc3cc(C(C)(C)CC(F)(F)F)on3)nc2)c(C(N)=O)c1N [Example 335, 5-Amino-1-isopropyl-3-[6-[2-oxo-2-[[5-(3,3,3-trifluoro-1,1-dimethyl-propyl)isoxazol-3-yl]amino]ethyl]-3-pyridyl]pyrazole-4-carboxamide]	< 150 nM	< 150 nM
